Experimental data taken from PMC11298625.

Amino acid sequences for entries named in this document (tags omitted).
UniProt A0A9E6GT21, entry or part of it: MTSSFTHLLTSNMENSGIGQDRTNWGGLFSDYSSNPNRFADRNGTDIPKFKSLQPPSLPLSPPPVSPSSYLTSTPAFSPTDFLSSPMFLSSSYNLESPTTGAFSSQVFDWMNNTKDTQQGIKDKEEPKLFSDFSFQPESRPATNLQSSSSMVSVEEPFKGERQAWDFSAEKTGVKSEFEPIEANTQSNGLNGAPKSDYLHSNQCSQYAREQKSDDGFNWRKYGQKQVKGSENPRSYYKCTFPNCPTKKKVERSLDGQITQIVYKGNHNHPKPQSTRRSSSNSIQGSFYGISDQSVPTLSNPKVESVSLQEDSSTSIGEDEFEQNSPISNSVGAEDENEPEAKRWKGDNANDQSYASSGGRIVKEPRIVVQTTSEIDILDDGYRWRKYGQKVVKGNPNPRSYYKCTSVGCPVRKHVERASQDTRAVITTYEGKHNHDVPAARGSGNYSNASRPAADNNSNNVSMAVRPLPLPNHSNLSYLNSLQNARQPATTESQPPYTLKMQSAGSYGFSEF

Key:
[1] = molecular target: T1, MdWRKY17 (Malus x domestica) (UniProt A0A9E6GT21); experiment: competition with a labelled probe; details: unlabeled 100x cold probe; Chemiluminescent EMSA Kit (Beyotime); pH and temperature not stated; recombinant protein; protein details: His (pET32a); label: biotin
[2] = molecular target: T1, MdWRKY17 (Malus x domestica); experiment: EMSA; details: mutant probe, text states only that specificity was confirmed; Chemiluminescent EMSA Kit (Beyotime); pH and temperature not stated; recombinant protein; protein details: His (pET32a)
MdWRKY17 + MdVQ17 = experiment: EMSA; details: MdVQ17-GST (2x, 3x) enhances MdWRKY17 binding; Chemiluminescent EMSA Kit (Beyotime); pH and temperature not stated; recombinant protein; protein details: His (pET32a),GST; label: biotin

| Sequence | binding result [1] | binding result [2] | further results |
| --- | --- | --- | --- |
| AAGTCAACTAAAAAAGTCAACGTCTGACCGTTGACTGGTCAAAG (double strand) [MdPL-like-P2 probe] | binds |  |  |
| AATTTAACTAAAAAATTTAACGTCTGACCGTTAAATGGTTAAAG (double strand) [MdPL-like-P2-mut] |  | binds more weakly |  |
| AGGAGTACCTTTAAAAAAACTATATTCAAA (double strand) [MdPL-like-P1-mut] |  | binds more weakly |  |
| AGGAGTACCTTTGGTCAAACTATATTCAAA (double strand) [MdPL-like-P1 probe] | binds |  |  |
| AGTTAAAAATTAATTGTTAATTGATTTAACATTTAATTTTAACT (double strand) [MdPL-like-P3-mut] |  | binds more weakly |  |
| AGTTGACCATTGACCGTTGACTGAGTCAACAGTCAAGGTCAACT (double strand) [MdPL-like-P3 probe] | binds |  |  |
| ATATTGTTTTCTGCATTTTTGACTTAATTTTTATAAATTAA (double strand) [MdDMR6 probe] |  |  | binding result (MdWRKY17 + MdVQ17): binds |

The exact form of at least one protein or probe is not confirmed. For some of these results: The comparison behind a weaker result is the experiment's own reference, which may not be listed here. For some of these results: At least one verdict was read from the data and is not stated in words by the source.
